The results in this text go back to US20210402011A1, “A COMPOUND FOR THE DETECTION OF HNO IN BIOLOGICAL SYSTEMS” (COUNCIL. OF SCIENTIFIC AND INDUSTRIAL RESEARCH, priority 2016, published 2021).

The data set can be described thus: Fluorescence emission studies for HNO detection in aq. PBS buffer-CH3CN. The method, then:
The spectroscopic properties of ER-HNO in aq. PBS buffer medium under physiological pH medium. No significant difference is observed in the electronic spectra of ER-HNO and ER-S. In order to check the response of ER-HNO probe (10 uM) with in presence of 20 mole equivalent of various ROS and RNS (HNO, HOCl, H2O2, —OH, TBHP, NO3^−, NO2^−, benzoyl peroxide, S^2− and ascorbate) emission spectra are recorded in aq. […] A turn ON emission response is observed for probe ER-HNO, only in presence of HNO with λEms^Max=580 nm (λExt=530 nm). Moreover, no significant changes are observed in presence of different anionic, cationic as well as biothiols under identical experimental condition. The effects of pH on emission spectrum of probe ER-HNO is also investigated. […] Therefore, to explore the bio analytical application, all the studies are carried out at physiological pH medium.
An enhancement in emission signal are observed at λMax=586 nm (Φ=0.105, for λExt=530 nm) with gradual increasing [HNO] (FIG. 1B). A good linearity is observed between emission intensity and concentration of HNO in the range of 2-15 uM, with a lower detection limit of 2 μM. […] PBS buffer medium.
Stock solution of probe ER-HNO (1×10^−4M) was prepared in HPLC grade acetonitrile. All the analytes stock solution (1×10^−2M) was prepared in aqueous HEPES buffer (10 mM) medium at pH 7.2. 500 μL of this stock solution of probe ER-HNO was added to 4.5 ml of PBS (10 mM) aqueous buffer medium having solution pH 7.2 to make the effective ER-HNO concentration of (1×10^−5) M. This solution was used for all the photophysical studies. All the photophysical studies were performed in aq. PBS: CH3CN medium (9:1, v/v) at pH7.2. All emission studies were done using λExt=530 nm with an emission slit width of 2/2 nm, unless and otherwise mentioned.

The mark [1] stands for this setting: aq. PBS buffer, physiological pH.

In the case of “(E)-4-(2-(5,5-difluoro-1,7,9-trimethyl-10-phenyl-5H-5l4,6l4-dipyrrolo[1,2-c:2′,1′-f][1,3,2]diazaborinin-3-yl)vinyl)phenyl 2-(diphenylphosphanyl)benzoate [ER-HNO]”, under setting [1], the “linear range of emission intensity vs concentration of HNO” value fell in the range of 2 to 15 µM and the “lower detection limit for HNO” value turned out to be 2 µM. Further, the “emission quantum yield Φ, probe itself” value (λExt=530 nm, aq-PBS buffer medium, no HNO) is given as 0.002. For the setting “λExt=530 nm, λMax=586 nm, with HNO”, the “emission quantum yield Φ with increasing [HNO]” value was found to be 0.105.
